Laboratory results from PubChem BioAssay AID1259415 (National Center for Advancing Translational Sciences (NCATS), 2018).
Where “and” joins values, the source holds several entries; their conditions need not be identical. Identical values can stand only once. The campaign covered roughly 410,000 compounds. About 18,000 (4.4%) were called active. Inconclusive means that the source gave no clear call. Such entries were picked first, then a sample of the others. Rule as the data show it: active = activity change below about -60%; inconclusive = no clear call, values can overlap the other calls; inactive = above about -39%.

Test: qHTS Assay for inhibitors of the human cytomegalovirus (HCMV)
Settings: HFF cells, HCMV-luciferase reporter, 72 h; at 57.5 µM; hits give low values
Method in brief: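 Cell-based, HFFs, 1000 cells/well, 16 h 37C; cpds in DMSO + HCMV-luc, MOI 1 PFU/cell; 72 h 37C; OneGlo luminescence after 5 min RT; norm. to buffer vs Salinomycin 10uM.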
% is scaled to controls: 0 for no effect and ±100 for the full control effect.

Row | Compound | activity change, negative = inhibition
1 | c1ccc2oc(SCc3cn4ccsc4n3)nc2c1 | inactive: 87.7%
2 | CCN(c1cccc(C)c1)S(=O)(=O)c1ccc2c(c1)CCCN2C(C)=O | inconclusive: -41.6%
3 | Cc1c(NS(=O)(=O)c2cccc([N+](=O)[O-])c2)c(=O)n(-c2ccccc2)n1C | inconclusive: -45.1%
4 | CCN1C(=O)/C(=C\N2CCN(C)CC2)SC1=S | inconclusive: -50.6%
5 | Cc1ccc(CNS(=O)(=O)c2ccc(Br)s2)cc1 | inconclusive: -46.8%
6 | O=C(c1ccc(C#Cc2ccccc2)o1)N1CCN(c2ccccn2)CC1 | inconclusive: -46.6%
7 | CC1(C)OC(=O)C2=C(C[C@@H](C3CCCC3)O[C@H]2CCc2cccc(Cl)c2)O1 | inactive: -7.53%
8 | CC1CC(C)CN(C(=O)COC(=O)c2ccc(N3CCCC3=O)cc2)C1 (stereo not drawn) | inconclusive: 0%
9 | Cc1ccc(C2Nc3ccccc3-n3c(-c4ccccc4)c4c(=O)n(C)c(=O)n(C)c4c32)cc1 (stereo not drawn) | inactive: 29.1%
10 | CCn1cc(C(=O)NCC(OC)OC)c(=O)c2cc(S(=O)(=O)N(C)C3CCCCC3)ccc21 | inconclusive: -42.6%
11 | C=Cc1ccc(CC2(C)C(=O)Nc3ccc(Cl)cc32)cc1 (stereo not drawn) | inactive: 3.1%
12 | O=C(Nc1cccc(Cl)c1N1CCOCC1)c1ccc(Br)o1 | inconclusive: -42.5%
13 | COc1ccc(-n2c(SCC(=O)NCc3ccccc3)nc3ccsc3c2=O)cc1 | inconclusive: -44.2%
14 | COc1cc(/C=N/N2CCN(c3ccccc3)CC2)ccc1OC(C)=O | inconclusive: -55.2%
15 | COc1ccc(CNC(=O)CN2C(=O)COc3ccc(S(=O)(=O)N4CCCCCC4)cc32)cc1 | inconclusive: -51.4%
16 | Cc1ccc(NC(=O)CCCN2C(=O)/C(=C/C=C/c3ccccc3)SC2=S)cc1 | inactive: 5.85%
17 | COc1ccc2oc(=Nc3cccc(F)c3)c(C(N)=O)cc2c1 | inconclusive: -40.1%
18 | O=c1oc(-c2ccccc2)cc(Cl)c1Cl | active: -101%
19 | COc1ccc(-n2ncc(C(=O)NCc3ccc4c(c3)OCO4)c2C2CCN(C(=O)OC(C)(C)C)CC2)cc1 | inactive: 0%
20 | O=c1[nH]nc(-c2ccc(NCCCO)c([N+](=O)[O-])c2)c2ccccc12 | inconclusive: -41.1%
21 | O=C(COc1ccc(C(=S)N2CCOCC2)cc1)Nc1ccccc1C(F)(F)F | active: -87.1%
22 | CCN(CC)CCCNC(=O)C(C)Sc1nc(-c2ccccc2)cc(C(F)(F)F)n1 (stereo not drawn) | inconclusive: -49.2%
23 | O=C(Cc1cccs1)NCCc1ccc(Cl)cc1 | inconclusive: -40.1%
24 | Cc1nc2nc(COc3ccccc3)nn2c(C)c1Cl | inconclusive: -50.2%
25 | CNS(=O)(=O)c1cn(CC(=O)N2CCN(c3ccc(Cl)cc3)CC2)cc1S(=O)(=O)NC | inactive: 0%
26 | CCCc1c(-c2ccc(Cl)cc2)ncn1CCc1ccccc1OC | active: -61.1%
27 | Fc1cccc(NC(=S)NNc2ccccc2)c1 | inconclusive: -43.3%

Row | Compound | activity change, negative = inhibition
28 | COc1ccc(CC(=O)NCC(c2ccc(N(C)C)cc2)N2CCOCC2)cc1OC (stereo not drawn) | inactive: -10.8%
29 | CCOc1ccc(S(=O)(=O)Nc2nc3ccccc3nc2Nc2ccc(N3CCOCC3)cc2)cc1 | inconclusive: -57.8%
30 | COC(=O)C1CCN(c2nc3ccccc3nc2C(C#N)C(=O)OCC(C)C)CC1 (stereo not drawn) | inactive: 24.3%
31 | CCOC(=O)c1cc2c(=O)n3ccccc3nc2n(Cc2ccco2)c1=NC(=O)c1ccc(OC)cc1 | inconclusive: -45.9% and inconclusive: -48.1%
32 | CCc1ccccc1NC(=O)COC(=O)c1c(C)nsc1NC | inconclusive: -47.2%
33 | CCc1ccc(N2C(=O)CN(Cc3ccc(OC)c(OC)c3)C2=S)cc1 | inconclusive: -46.4%
34 | COC(=O)[C@]12C[C@H](CC(=O)NCc3ccccc3)C(=O)N(CCC3=CCCCC3)C1=C[C@H](COCc1ccccc1)O[C@@H]2C | inconclusive: -50.9%
35 | COc1ccc(C(=O)NNC(=O)CSc2nnnn2C)cc1 | inconclusive: -45.3%
36 | COc1ccc(NC2CC(=O)N(c3cc([N+](=O)[O-])ccc3C)C2=O)cc1 (stereo not drawn) | inconclusive: -42.6%
37 | COc1ccc(N(C)S(=O)(=O)c2cccc(C(=O)NCC3CCCO3)c2)cc1 (stereo not drawn) | inconclusive: -41.9%
38 | CN(C)/C=N/c1ncc(C(=O)c2ccc(-c3ccccc3)cc2)s1 | inconclusive: -56%
39 | CCC(=O)N1CCN(c2nc(-c3ccc(Cl)cc3)cs2)CC1 | inconclusive: -46.7%
40 | CCCCN(C(=O)CSCC(=O)Nc1ccc(C)cc1)c1c(N)n(Cc2ccccc2)c(=O)[nH]c1=O | inconclusive: -41.5%
41 | O=C(Nc1ccccc1NC(=O)c1ccco1)c1ccco1 | inactive: 9.98%
42 | CCOC(=O)C(CC)n1nc(C)n2c(cc3occc32)c1=O (stereo not drawn) | inconclusive: -47.7%
43 | CCOc1ccc2nc3ccc4[nH]onc4c3c2c1 | inconclusive: -43.6%
44 | COc1ccc(C(=O)COC(=O)c2cccc(NC(=O)c3ccc(OC)c(OC)c3)c2)cc1 | inactive: 26.6%
45 | COc1cc(/C=N/Nc2snc(SC)c2C#N)cc(OC)c1OC | active: -86.4%
46 | N#Cc1cccc(NC(=O)CSc2ccc3c4c(cccc24)C(=O)c2ccccc2-3)c1 | inconclusive: -52.7%
47 | Nc1nonc1-n1nnc(C(=O)N/N=C/c2ccc(OCc3ccccc3F)cc2)c1CNc1ccccc1 | inconclusive: -41.6%
48 | COc1ccc(S(=O)(=O)N2CCN(C(=S)NCCc3ccccc3)CC2)cc1 | inactive: -1.19%
49 | Nc1[nH]n(-c2c(Cl)cc(Cl)cc2Cl)c(=O)c1N=Nc1ccc(S(=O)(=O)Nc2ncccn2)cc1 | inconclusive: -52.7%
50 | CCOC(=O)[C@@H]1[C@H]2COc3ccc(Br)cc3[C@H]2N2C(=O)N(c3ccc(C)cc3)C(=O)[C@]12C | inconclusive: -42.2%
51 | Cc1ccc(CN2C(=O)C(O)(c3c[nH]c4ccccc34)c3cc(Cl)ccc32)cc1 (stereo not drawn) | inconclusive: -52.5%
52 | COc1ccc(-c2csc(N3C(=O)C4C5c6ccccc6C(c6ccccc65)[C@@H]4C3=O)n2)cc1 (stereo partly drawn) | inconclusive: -42.1%
53 | CCCc1nc([N+](=O)[O-])c(S(=O)(=O)c2ccccc2)n1CC(C)C | active: -92.9%
